Taken from: PubChem BioAssay AID1259308 (NCATS, 2017)

- Assay: 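Genes whose loss raises luciferase production in HEK293 cells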 (primary screen)
- Cells: human HEK293 embryonic kidney cells stably expressing firefly luciferase (HEK-CMV-Luc2-Hygro)
- Knock-down reagent: single siRNA against human genes, 0.8 pmol siRNA per well
- Timing: 72 h
- Measured: 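Luciferase light (ONE-Glo) measured on one replicate plate set and viability (CellTiter-Glo) on the other, scaled to a negative control siRNA, with robust z-scores and luciferase per cell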
- Reading the numbers: total luciferase, z-score and total luciferase, % of control: higher = more reporter protein produced; luciferase per cell, z-score: higher = more reporter output per viable cell; viable cells, % of control: higher = more viable cells
- Rule for the call: 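An siRNA counts as active if its total luciferase robust z-score exceeds 3; genes with two or more such siRNAs out of three were retested with fresh siRNAs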
- Meaning of the calls: active = raised luciferase; inactive = no rise
The deposit covers about 59,000 reagents; this is a part drawn at random. In the full data, about 1,510 (2.6%) were called active. 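Calls use total luciferase alone and ignore viability, so some active siRNAs may act by altering cell number.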 Entries without a mark were called inactive. The numbers tell different reagents against one gene apart.

no.	Target gene	reagent	total luciferase, z-score	total luciferase, % of control	luciferase per cell, z-score	viable cells, % of control
1	TMEM17	1	-2.43	33.6	-2.62	74.8
2	TMEM17	2	-0.823	65.5	-0.368	80.7
3	TMEM17	3	1.24	107	1.28	84.9
4	COQ5	1	-1.67	48.6	-1.36	77.8
5	COQ5	2	-0.889	64.2	-0.793	88.4
6	COQ5	3	-0.301	75.9	-0.728	103
7	NDUFA2	1	-2.04	41.3	-1.27	64.3
8	NDUFA2	2	0.85	98.8	0.56	95.3
9	NDUFA2	3	-1.19	58.2	0.32	59.8
10	LRRCC1	1	0.355	88.9	-0.137	103
11	LRRCC1	2	0.239	86.6	-0.489	110
12	LRRCC1	3	-1.19	58.3	-1.3	91.6
13	APOO	1	0.365	89.2	-0.497	114
14	APOO	2	0.818	98.1	0.024	109
15	APOO	3	1.61	114	0.639	108
16	IGLL1	1	0.502	91.9	-0.0671	104
17	IGLL1	2	5.28 (active)	187	3.81	76.5
18	IGLL1	3	0.487	91.6	-0.285	110
19	DRC4	1	1.35	109	1.67	78.2
20	DRC4	2	0.0701	83.3	0.481	82
21	DRC4	3	-0.511	71.7	0.106	78
22	FIBCD1	1	0.335	88.6	0.82	79.7
23	FIBCD1	2	0.14	84.7	-0.108	97.3
24	FIBCD1	3	-0.163	78.6	-0.195	92.5

A portion taken from the entries so far, for reference:
no.	Target gene	reagent	total luciferase, z-score	total luciferase, % of control	luciferase per cell, z-score	viable cells, % of control
1	TMEM17	1	-2.43	33.6	-2.62	74.8
2	TMEM17	2	-0.823	65.5	-0.368	80.7
3	TMEM17	3	1.24	107	1.28	84.9
4	COQ5	1	-1.67	48.6	-1.36	77.8
5	COQ5	2	-0.889	64.2	-0.793	88.4
6	COQ5	3	-0.301	75.9	-0.728	103
7	NDUFA2	1	-2.04	41.3	-1.27	64.3
8	NDUFA2	2	0.85	98.8	0.56	95.3

Next results follow.
no.	Target gene	reagent	total luciferase, z-score	total luciferase, % of control	luciferase per cell, z-score	viable cells, % of control
25	SLC9A7	1	0.0581	83	-0.223	98.4
26	SLC9A7	2	-0.168	78.6	0.0402	86.9
27	SLC9A7	3	-0.154	78.8	0.335	80.6
28	DNAI7	1	0.891	99.6	0.257	104
29	DNAI7	2	1.53	112	1.03	95.6
30	DNAI7	3	-1.41	53.8	-0.927	76.7
31	TMEM233	1	-0.15	78.9	-0.969	114
32	TMEM233	2	0.778	97.4	0.33	99.7
33	TMEM233	3	-0.54	71.2	-1.02	104
34	NADSYN1	1	0.396	89.8	-0.352	110
35	NADSYN1	2	-0.532	71.3	-0.615	93.7
36	NADSYN1	3	0.0157	82.2	-0.0718	93.6
37	MPP2	1	3.42 (active)	150	2.12	95.8
38	MPP2	2	1.07	103	0.834	92.5
39	MPP2	3	-0.461	72.7	-0.266	87.2
40	PLEKHB1	1	-0.334	75.2	-0.271	90.3
41	PLEKHB1	2	1.22	106	1.32	83.7
42	PLEKHB1	3	0.259	87	0.934	76.1
43	OR4A16	1	-1.51	51.8	-1.28	81.1
44	OR4A16	2	-1.11	59.8	-0.907	84.8
45	OR4A16	3	1.13	104	0.738	96.1
46	PNRC1	1	3.69 (active)	155	1.98	103
47	PNRC1	2	-0.853	64.9	-0.743	88.2
48	PNRC1	3	-0.538	71.2	0.121	77.1
49	TGM5	1	-0.335	75.2	-0.792	104
50	TGM5	2	-0.161	78.7	-0.631	104
51	TGM5	3	2.15	125	0.929	109
52	HMGB3P19	1	0.795	97.7	1.69	70
53	HMGB3P19	2	0.121	84.3	0.426	84.2
54	HMGB3P19	3	0.194	85.7	0.388	86.5
55	CDC14A	1	-0.596	70	-0.502	89.3
56	CDC14A	2	0.0726	83.3	-0.437	104
57	CDC14A	3	0.765	97.1	1.28	77.4
